Source: PMC12848035
Results are given in words; binding and its absence hold for the method and conditions named. Binding seen in cells or lysates may run through a third protein. Some results given as binding are weak or reduced against the parent protein; the word gives no strength. Tags and fused reporters may be left off the sequences shown.

Assays:
Assay in all cases: co-IP; HEK293T cells transfected with tagged HHIPL2 and HNRNPC constructs; lysate in IP lysis buffer; anti-FLAG magnetic beads 4 h at 4 °C; Western blot
HNRNPC-RRM (human) = target: T1, HNRNPC-RRM (human) (UniProt P07910)
T1 sequence: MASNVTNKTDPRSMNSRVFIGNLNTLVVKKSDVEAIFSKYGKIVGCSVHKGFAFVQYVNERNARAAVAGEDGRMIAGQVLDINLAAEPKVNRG

HNRNPC-ΔRRM (human) = target: T2, HNRNPC-ΔRRM (human) (UniProt P07910)
T2 sequence: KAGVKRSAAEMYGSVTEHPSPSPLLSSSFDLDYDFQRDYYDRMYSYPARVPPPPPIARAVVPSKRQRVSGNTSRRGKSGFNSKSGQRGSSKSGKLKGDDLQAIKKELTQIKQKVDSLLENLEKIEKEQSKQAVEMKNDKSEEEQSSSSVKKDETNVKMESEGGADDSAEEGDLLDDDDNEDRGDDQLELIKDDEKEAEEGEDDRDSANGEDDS

[1] = target: HNRNPC-FLAG (full-length, WT) (human) (UniProt P07910)

B1: HHIPL2-MYC (protein, UniProt Q6UWX4 42-724)
chain: HPQCLDYGPPFQPPLHLEFCSDYESFGCCDQHKDRRIAARYWDIMEYFDLKRHELCGDYIKDILCQECSPYAAHLYDAENTQTPLRNLPGLCSDYCSAFHSNCHSAISLLTNDRGLQESHGRDGTRFCHLLDLPDKDYCFPNVLRNDYLNRHLGMVAQDPQGCLQLCLSEVANGLRNPVSMVHAGDGTHRFFVAEQVGVVWVYLPDGSRLEQPFLDLKNIVLTTPWIGDERGFLGLAFHPKFRHNRKFYIYYSCLDKKKVEKIRISEMKVSRADPNKADLKSERVILEIEEPASNHNGGQLLFGLDGYMYIFTGDGGQAGDPFGLFGNAQNKSSLLGKVLRIDVNRAGSHGKRYRVPSDNPFVSEPGAHPAIYAYGIRNMWRCAVDRGDPITRQGRGRIFCGDVGQNRFEEVDLILKGGNYGWRAKEGFACYDKKLCHNASLDDVLPIYAYGHAVGKSVTGGYVYRGCESPNLNGLYIFGDFMSGRLMALQEDRKNKKWKKQDLCLGSTTSCAFPGLISTHSKFIISFAEDEAGELYFLATSYPSAYAPRGSIYKFVDPSRRAPPGKCKYKPVPVRTKSKRIPFRPLAKTVLDLLKEQSEKAARKSSSATLASGPAQGLSEKGSSKKLASPTSSKNTLRGPGTKKKARVGPHVRQGKRRKSLKSHSGRMRPSAEQKRAGRSLP
- binding (HNRNPC-RRM (human)): no binding
- binding (HNRNPC-ΔRRM (human)): binds
- binding [1]: binds
